The full ranking holds about 33,000 sequences; the median of “E-score (-0.5 to 0.5)” is about -0.016, and the highest 2% start at about 0.3. The list shows a part of the results.
Each sequence was assayed against T1, Yer184c (UniProt P39961) (assay: PBM E-score (8-mer binding enrichment) (E-score (-0.5 to 0.5)); higher = stronger / more preferred TF binding). Conditions: protein concentration: 100 nM; construct: GST-full length.
T1 sequence: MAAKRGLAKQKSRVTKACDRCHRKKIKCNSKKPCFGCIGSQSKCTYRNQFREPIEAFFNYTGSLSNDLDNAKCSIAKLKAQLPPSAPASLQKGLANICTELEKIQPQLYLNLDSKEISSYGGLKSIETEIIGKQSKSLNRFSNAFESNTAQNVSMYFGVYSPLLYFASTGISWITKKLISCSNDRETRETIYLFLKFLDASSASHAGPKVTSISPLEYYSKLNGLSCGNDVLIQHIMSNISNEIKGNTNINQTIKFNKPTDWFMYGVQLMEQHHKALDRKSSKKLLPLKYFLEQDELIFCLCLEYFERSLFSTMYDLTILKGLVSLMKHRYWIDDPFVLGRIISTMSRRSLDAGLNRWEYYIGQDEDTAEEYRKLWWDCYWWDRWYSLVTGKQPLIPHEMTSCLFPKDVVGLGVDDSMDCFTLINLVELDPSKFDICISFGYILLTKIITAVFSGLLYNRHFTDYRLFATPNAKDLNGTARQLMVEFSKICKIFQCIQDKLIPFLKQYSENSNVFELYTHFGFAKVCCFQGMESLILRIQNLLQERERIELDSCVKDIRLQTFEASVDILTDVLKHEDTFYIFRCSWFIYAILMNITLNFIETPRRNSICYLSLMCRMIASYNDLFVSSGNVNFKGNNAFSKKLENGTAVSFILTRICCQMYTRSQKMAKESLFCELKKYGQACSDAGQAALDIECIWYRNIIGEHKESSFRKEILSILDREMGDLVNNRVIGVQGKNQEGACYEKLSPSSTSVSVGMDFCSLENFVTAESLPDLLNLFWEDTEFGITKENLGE
Outline: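 Each ungapped eight-base word and its reverse complement, pooled, received an E-score from the Universal PBM Analysis Suite. Underlying scans, normalised with masliner, recorded fluorescent anti-GST bound to GST-tagged yeast transcription factors. These were applied at about 100-200 nM to universal all-10-mer Agilent arrays double-stranded by primer extension.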

Row | Sequence | PBM E-score
1 | CGAGGGTC | -0.129
2 | ATGGCCAA | -0.125
3 | GTGTAATA | 0.0205
4 | GCGGGCCA | -0.21
5 | AGATTTAG | 0.0688
6 | TACATTAA | 0.249
7 | CTCTTGTC | 0.13
8 | AATTATCC | 0.116
9 | ACATGGTA | -0.173
10 | ATCAAAGG | -0.073
11 | CAAGGGCA | -0.327
12 | ACGCCATC | -0.0413
13 | ATGAGACC | -0.15
14 | CCACCGAA | 0.104
15 | ATTCATGA | 0.0414
16 | GTACAACA | 0.225
17 | GTACACAA | -0.0116
18 | GCAGGAAC | -0.0354
19 | CTATGACA | -0.101
20 | ATACATGC | -0.116
21 | CGCGTTCA | 0.165
22 | CATGCCGG | 0.366
23 | CGTCTTGA | 0.239
24 | AACAGAAA | 0.172
25 | ACGATGGC | -0.0929

Row | Sequence | PBM E-score
26 | TACTGGGA | 0.094
27 | TGTGTTAA | 0.143
28 | AGCGAGGG | -0.263
29 | AGTGCGAC | -0.13
30 | CGAAAGAA | -0.0158
31 | ACCCGAGG | -0.00171
32 | CCATTATA | 0.115
33 | ATGGTTTA | 0.0235
34 | CTCGTTGC | 0.136
35 | ACATTTAT | -0.208
36 | GCTCTTTA | -0.0543
37 | ACGGACTC | 0.0365
38 | ACTGAGAA | 0.0324
39 | GCAACCCC | -0.228
40 | ATGACGAG | -0.0653
41 | CGGGATTA | 0.262
42 | ATAAATGG | -0.0498
43 | ATCGTTGA | 0.0875
44 | AGCATTAG | 0.0604
45 | ATCGTCAA | 0.0976
46 | CACCTTAG | -0.164
47 | CTCTCTGC | -0.138
48 | ACCCACGT | -0.121
49 | AAACGGTA | 0.163
50 | CACTCCCG | 0.0838

An excerpt of these results, with each value named.
ATGACGAG
  PBM E-score = -0.0653
CGGGATTA
  PBM E-score = 0.262
ATAAATGG
  PBM E-score = -0.0498
ATCGTTGA
  PBM E-score = 0.0875

(further entries)

Row | Sequence | PBM E-score
51 | CGGACAAG | 0.234
52 | CTAAGAAG | 0.158
53 | CAAACCCA | 0.0411
54 | GAGCGACC | 0.0181
55 | GAATAGTA | 0.187
56 | CGTATCCA | -0.0949
57 | AGTAAATC | -0.0252
58 | AACACGCC | -0.167
59 | GGATAAGA | 0.0512
60 | GAAATGTC | 0.0129
61 | AAGATTGA | -0.0568
62 | TATCTGCA | -0.0584
63 | ACCTCCCG | -0.14
64 | AATCCGGT | 0.36
65 | CAGGGGAC | -0.253
66 | CGATGGCG | -0.0401
67 | TACAAGGA | 0.0489
68 | GGCTCCTA | -0.11
69 | AAATTCTT | 0.0207
70 | CTTCACCC | 0.158
71 | CACTGGGC | -0.185
72 | GCTAATCC | 0.0566
73 | CTGTAAGC | -0.0673
74 | CAAGATCG | 0.146
75 | CTGTGGAA | 0.111

Row | Sequence | PBM E-score
76 | GGTGCATA | -0.0408
77 | GCGGACCA | 0.243
78 | TTGAGAAA | 0.0843
79 | ATGTAATA | 0.251
80 | CTTGAACA | 0.0822
81 | CAAGAGCC | 0.108
82 | AAGCCGGA | 0.411
83 | AACGTCGC | 0.00887
84 | ATTGGCAG | -0.137
85 | CAGCAAAG | 0.0136
86 | TATCTTGA | 0.0213
87 | ACGCTGCC | -0.12
88 | AAACAATA | 0.282
89 | GTCTCGAA | -0.169
90 | AGTCTCTC | -0.198
91 | GAAACCAC | -0.0782
92 | GTTACGAA | 0.209
93 | ACGTGCAA | -0.0364
94 | CAGCCCGC | -0.246
95 | GACTAGAC | -0.115
96 | CAAACACG | 0.051
97 | GCCGTTCC | 0.0294
98 | TGCGCTAA | 0.0232
99 | CAGTGGTC | -0.0866
100 | CCGGTGCG | 0.14

Row | Sequence | PBM E-score
101 | GGTCCTGA | 0.0295
102 | GGTAACAC | -0.00923
103 | CCTGGTAG | -0.314
104 | CAGTCACG | -0.154
105 | CCTTATAC | -0.00095
106 | CACACGCA | -0.172
107 | CACACCGG | 0.0348
108 | CCTAAGCC | -0.148
109 | CCCGAACC | 0.0911
110 | CAAACCAG | -0.0823
111 | ACTCCACT | -0.16
112 | CTGCCAGA | -0.0616
113 | ACAGCTTG | -0.0221
114 | TAATGCGA | -0.019
115 | CTTTCACC | -0.0811
116 | CGCAGCTA | 0.0423
117 | ATATACCG | 0.235
118 | AGTACACC | -0.133
119 | AAATATTT | 0.207
120 | CTGCTGGC | -0.188
121 | ACCGTCCG | 0.151
122 | GACACTCA | -0.0521
123 | AATTTTCA | 0.172
124 | CCACTCTA | -0.152
125 | AATGAGTG | 0.0619

Row | Sequence | PBM E-score
126 | ATGCGGTC | 0.182
127 | CTGATCGC | -0.0268
128 | AAGAATCC | 0.157
129 | CCATGCGA | -0.0128
130 | CCCGCCCC | 0.102
131 | ATCACTAA | 0.117
132 | AAGGATGC | -0.111
133 | CCTGCTAG | -0.216
134 | AGGCATTC | -0.156
135 | ACATCTCG | 0.00537
136 | GCTGACTA | -0.161
137 | GACGCAAA | 0.0185
138 | TAGCTTAA | 0.0932
139 | ACTATGCA | -0.111
140 | GAAGCGCC | 0.192
141 | TAATATAA | 0.339
142 | ACGCCCAC | -0.121
143 | GGACTACC | -0.123
144 | AAGATGTG | 0.00026
145 | GGTTGTGA | 0.084
146 | TTAGACAA | 0.0737
147 | GGCGTCTA | -0.00727
148 | AAGAAAAA | 0.276
149 | ATGACCTG | -0.0827
150 | GCGCTGAA | -0.0402

Row | Sequence | PBM E-score
151 | ACGCACCG | -0.0652
152 | CGTTGCGA | -0.118
153 | CCTCAATA | -0.202
154 | CTACTGAG | -0.0172
155 | TCCAAAGA | 0.116
156 | ATTACTGA | -0.093
157 | GAGTACCA | 0.052
158 | TATCGTGA | -0.0301
159 | AAACACCT | 0.105
160 | AGGTGTAC | -0.13
161 | AGTTCCAT | -0.0279
162 | GCCATAAA | -0.0191
163 | AATCCAAT | 0.012
164 | GGTAAACC | 0.0229
165 | ACCTTACT | 0.0926
166 | TAAGGCGA | -0.0439
167 | GATGGATA | 0.0331
168 | AATGCGAA | 0.00751
169 | AACAGAGT | 0.0963
170 | GTACGTAA | -0.116
171 | CCCAAGAA | -0.00755
172 | GTTATAAC | 0.0565
